Laboratory results: PubChem BioAssay AID504764 (Drosophila RNAi Screening Center, 2011)
Aim: 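Knock-downs that raise or lower a Notch target reporter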 (primary screen). Cells: Drosophila Kc167 cells. Reagents: long dsRNA against Drosophila genes. Duration: about 5 days (4 days dsRNA, then 24 h after transfection). Treatment: transfection of constitutively active membrane-tethered Notch lacking the extracellular domain, read 24 h later. Measured: 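Firefly luciferase from an E(spl)m3 reporter with active Notch, plus control-promoter and uninduced reporter wells for normalisation; unnormalised counts, duplicate wells a and b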. Reading the numbers: induced reporter light, run 1, well a and induced reporter light, run 1, well b: higher = more light from the Notch target reporter with active Notch; control promoter light, run 1, well a and control promoter light, run 1, well b: higher = more light from the viral control promoter (cell number, transfection, viability); uninduced reporter light, run 1, well a: higher = more light from the Notch target reporter without active Notch. Rule for the call: 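Hit if the duplicate-averaged log2 ratio of induced to control-promoter light gives a plate-wise z beyond ±2, or induced to uninduced beyond ±1.8; weak-control or discordant-duplicate wells dropped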. Meaning of the calls: active = modifier hit (raised or lowered Notch signal); inactive = not a hit.
The screen tested about 22,000 reagents; shown is an unselected part of those that have a named target and a result. In the full data, 403 (1.9%) are marked active. 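Unnormalised raw counts per well; ratio z-scores behind the hit calls and whether each hit raises or lowers signal are not deposited.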 No sequences are given here. The record does not give: the amount of reagent.

| target | amplicon | induced reporter light, run 1, well a | induced reporter light, run 1, well b | control promoter light, run 1, well a | control promoter light, run 1, well b | uninduced reporter light, run 1, well a | Call |
| --- | --- | --- | --- | --- | --- | --- | --- |
| fl(2)d | DRSC07620 | 1.01e5 | 1.07e5 | 1.09e5 | 82400 | 10335 | active |
| Ir75a | DRSC10188 | 1.82e5 | 1.61e5 | 2.10e5 | 1.93e5 | 10305 | inactive |
| mal | DRSC20581 | 1.13e5 | 95845 | 1.00e5 | 70110 | 8750 | inactive |
| CG17574 | DRSC06681 | 99325 | 95515 | 1.21e5 | 1.30e5 | 10350 | inactive |
| CG4511 | DRSC15589 | 30415 | 29675 | 23228 | 24555 | 2680 | inactive |
| mah | DRSC14645 | 2.53e5 | 2.11e5 | 2.69e5 | 2.77e5 | 20645 | inactive |
| CG10053 | DRSC12502 | 1.14e5 | 1.50e5 | 91090 | 89390 | 9385 | inactive |
| mTor | DRSC02811 | 55815 | 73810 | 50375 | 56690 | 4975 | inactive |
| Sry-beta | DRSC16868 | 1.48e5 | 1.80e5 | 2.08e5 | 2.29e5 | 10710 | inactive |
| CG4615 | DRSC17491 | 98250 | 83675 | 1.01e5 | 78900 | 6582 | inactive |
| CG4615 | DRSC18376 | 1.65e5 | 1.44e5 | 1.90e5 | 1.61e5 | 10755 | inactive |
| Klp64D | DRSC11204 | 3.02e5 | 2.22e5 | 2.22e5 | 2.08e5 | 15405 | inactive |
| CG6168 | DRSC10596 | 1.28e5 | 1.30e5 | 1.84e5 | 1.30e5 | 7055 | inactive |
| Balat | DRSC06852 | 1.53e5 | 1.24e5 | 1.11e5 | 1.32e5 | 9228 | inactive |
| Cyp6a9 | DRSC07385 | 1.01e5 | 97785 | 1.35e5 | 1.27e5 | 8210 | inactive |
| Dh31 | DRSC02196 | 1.69e5 | 1.96e5 | 1.02e5 | 1.27e5 | 20068 | inactive |
| Scgbeta | DRSC15854 | 75045 | 61105 | 80270 | 61355 | 3700 | inactive |
| mino | DRSC14132 | 35615 | 47495 | 49485 | 51145 | 3185 | inactive |
| Ir87a | DRSC14836 | 2.74e5 | 2.49e5 | 1.67e5 | 2.32e5 | 16320 | inactive |
| TyrRS-m | DRSC04286 | 2.18e5 | 1.99e5 | 1.68e5 | 1.91e5 | 15855 | inactive |
| rdgA | DRSC17863 | 1.40e5 | 1.49e5 | 2.90e5 | 3.39e5 | 11895 | inactive |
| rdgA | DRSC18036 | 1.49e5 | 1.89e5 | 3.39e5 | 2.55e5 | 10085 | inactive |
| rdgA | DRSC18827 | 2.50e5 | 1.99e5 | 1.81e5 | 1.99e5 | 11865 | active |
| CG13926 | DRSC08395 | 1.69e5 | 1.12e5 | 2.09e5 | 1.73e5 | 8300 | inactive |
| CG13728 | DRSC10056 | 2.47e5 | 1.85e5 | 2.43e5 | 2.12e5 | 6750 | inactive |
| mspo | DRSC07652 | 1.01e5 | 95380 | 1.39e5 | 1.08e5 | 8850 | inactive |
| caup | DRSC11334 | 32615 | 44270 | 41465 | 37510 | 3350 | inactive |
| Pof | DRSC04405 | 2.29e5 | 1.84e5 | 1.74e5 | 1.72e5 | 17075 | inactive |
| Best2 | DRSC09712 | 2.56e5 | 2.43e5 | 2.36e5 | 2.20e5 | 11985 | inactive |
| CG10494 | DRSC04072 | 2.29e5 | 2.50e5 | 2.15e5 | 2.52e5 | 20490 | inactive |
| Targ3 | DRSC11471 | 2.12e5 | 2.11e5 | 3.86e5 | 2.84e5 | 19842 | inactive |
| Mvd | DRSC20096 | 1.73e5 | 2.12e5 | 2.47e5 | 2.33e5 | 16380 | inactive |
| tHMG1 | DRSC16181 | 1.84e5 | 1.65e5 | 2.03e5 | 1.77e5 | 12455 | inactive |
| CG9117 | DRSC03141 | 59725 | 56840 | 63620 | 58620 | 3235 | inactive |
| CG1208 | DRSC12190 | 1.09e5 | 86595 | 77145 | 70895 | 7280 | inactive |
| ssh | DRSC16730 | 1.49e5 | 1.57e5 | 1.85e5 | 1.76e5 | 10605 | inactive |
| IRSp53 | DRSC10891 | 77220 | 77695 | 1.10e5 | 94365 | 4610 | inactive |
| CG12880 | DRSC14568 | 1.77e5 | 1.63e5 | 2.02e5 | 2.42e5 | 12055 | inactive |
| FASN1 | DRSC00268 | 1.36e5 | 1.75e5 | 1.51e5 | 1.54e5 | 14755 | inactive |
| CG8939 | DRSC20127 | 1.02e5 | 80340 | 1.29e5 | 1.00e5 | 6905 | inactive |
| CG33796 | DRSC09417 | 2.16e5 | 2.05e5 | 2.77e5 | 2.41e5 | 15330 | inactive |
| CG2794 | DRSC00534 | 1.11e5 | 1.02e5 | 94810 | 79340 | 10505 | inactive |
| CG1620 | DRSC06603 | 2.19e5 | 2.24e5 | 1.78e5 | 2.09e5 | 18315 | inactive |
| Rpt1 | DRSC07542 | 42495 | 42490 | 38730 | 36190 | 4535 | inactive |
| Cox17 | DRSC20145 | 1.20e5 | 92290 | 1.03e5 | 1.06e5 | 12570 | inactive |
| Nse1 | DRSC02147 | 1.03e5 | 1.44e5 | 1.46e5 | 1.65e5 | 14482 | active |
| Fatp (retired record) | DRSC03054 | 2.13e5 | 2.76e5 | 2.06e5 | 2.36e5 | 18320 | inactive |
| CG10839 | DRSC01965 | 1.36e5 | 1.49e5 | 1.38e5 | 1.53e5 | 11380 | inactive |
| hay | DRSC11354 | 1.26e5 | 98430 | 78160 | 29680 | 10870 | inactive |
| PDZ-GEF | DRSC03231 | 1.54e5 | 1.34e5 | 1.54e5 | 2.18e5 | 11750 | inactive |

Records listed above with an active call:
| target | amplicon | induced reporter light, run 1, well a | induced reporter light, run 1, well b | control promoter light, run 1, well a | control promoter light, run 1, well b | uninduced reporter light, run 1, well a | Call |
| --- | --- | --- | --- | --- | --- | --- | --- |
| fl(2)d | DRSC07620 | 1.01e5 | 1.07e5 | 1.09e5 | 82400 | 10335 | active |
| rdgA | DRSC18827 | 2.50e5 | 1.99e5 | 1.81e5 | 1.99e5 | 11865 | active |
| Nse1 | DRSC02147 | 1.03e5 | 1.44e5 | 1.46e5 | 1.65e5 | 14482 | active |
